From patent US20250171560A1
No constants are given. Whether binding was seen depends on the method and setting. Some binding calls cover weakened binding; strength is not graded here. For part of these data: Tags and fused reporters may be left off the sequences shown.

Experiments:
[1] = molecular target: T1, recombinant UPK2 extracellular domain (UPK2-His) (Homo sapiens (Human)) (UniProt O00526); assay: ELISA, recombinant whole antibody on UPK2-His (FIG. 22)
T1 sequence: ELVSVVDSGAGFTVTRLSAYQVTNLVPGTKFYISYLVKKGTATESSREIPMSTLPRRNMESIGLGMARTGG

[2] = molecular target: T1, recombinant UPK2 extracellular domain (UPK2-His) (Homo sapiens (Human)); assay: SPR, BIAcore X-100
[3] = molecular target: T1, recombinant UPK2 extracellular domain (UPK2-His) (Homo sapiens (Human)); assay: summary of ELISA and specificity analysis
[4] = molecular target: T1, recombinant UPK2 extracellular domain (UPK2-His) (Homo sapiens (Human)); assay: ELISA, antibody dilution series on UPK2-his coated at 0.5 ug/ml, OD490
[5] = molecular target: T1, recombinant UPK2 extracellular domain (UPK2-His) (Homo sapiens (Human)); assay: ELISA, specificity (FIG. 23)
[6] = molecular target: T1, recombinant UPK2 extracellular domain (UPK2-His) (Homo sapiens (Human)); assay: phage ELISA, purified scFv phage on UPK2-his coated at 0.5 ug/ml, OD490
[7] = molecular target: T1, recombinant UPK2 extracellular domain (UPK2-His) (Homo sapiens (Human)); assay: phage ELISA (FIG. 21)
[8] = molecular target: T2, ACPP in paraffin sections of prostate cancer tissue; assay: immunofluorescence staining of paraffin sections of prostate cancer
T2 sequence: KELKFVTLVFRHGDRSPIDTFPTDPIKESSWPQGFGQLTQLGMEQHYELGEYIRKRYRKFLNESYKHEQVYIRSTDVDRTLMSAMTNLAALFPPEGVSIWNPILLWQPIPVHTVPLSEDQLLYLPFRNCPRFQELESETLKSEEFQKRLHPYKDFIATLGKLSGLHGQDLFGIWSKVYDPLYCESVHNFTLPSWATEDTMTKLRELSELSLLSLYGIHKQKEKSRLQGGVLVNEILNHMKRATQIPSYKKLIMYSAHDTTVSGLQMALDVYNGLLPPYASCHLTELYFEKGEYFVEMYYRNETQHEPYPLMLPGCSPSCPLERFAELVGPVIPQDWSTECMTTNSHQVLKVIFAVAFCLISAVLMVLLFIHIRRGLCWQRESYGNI

Measured: binding

B1: recombinant anti-UPK2 monoclonal antibody S7F11 (murine-human chimeric) (antibody, V domains shown)
VH: EVQLKESGAELVRSGASVKLSCTASAFNIKDYYMNWMKQRPEQGLEWIGWIDPENGDTKYAPKFQGKATITADTSSSTAYLQLTSLTSEDSAVFYCNVNYKYDWFAYWGQGTLVTVSA
VL: DVVMTQSQKFMSTSVGDRVSVTCKASQNVGTNVAWYQQKPGQSPRALIYSASYRYSGVPDRFTGSGSGTDFTLTISNVQSEDLAEYFCQQYNTYPWTFGGGTKLEIK
binds: [1] | [2] | [3] | [4] | [5]

B2: scFv UPK2-S3A4 (phage display clone) (scFv)
scFv: EVKLKQSGAELVKPGASVKLSCKASGYTLTSYYIYWVKQRPGQGLEWIGGISPSNGNTYFTEKFKNMATLTVDKSSNTAYMQLSSLTSEDSAVYYCARNYDYDVGFAYWGQGTLVTVSSGGGGSGGGGSGGGGSDVVMTQTPLSLPVSLGDQASISCRSSQSIVHSNGNTYLEWYLQKPGQSPKLLIYKVSNRFSGVPDRFSGSGSGTDFTLKISRVEAEDLGVYYCFQGSHVPFTFGSGTKLEIK
binds: [6] | [7]

B3: recombinant anti-UPK2 monoclonal antibody S3A4 (murine-human chimeric) (antibody, V domains shown)
VH: EVKLKQSGAELVKPGASVKLSCKASGYTLTSYYIYWVKQRPGQGLEWIGGISPSNGNTYFTEKFKNMATLTVDKSSNTAYMQLSSLTSEDSAVYYCARNYDYDVGFAYWGQGTLVTVSS
VL: DVVMTQTPLSLPVSLGDQASISCRSSQSIVHSNGNTYLEWYLQKPGQSPKLLIYKVSNRFSGVPDRFSGSGSGTDFTLKISRVEAEDLGVYYCFQGSHVPFTFGSGTKLEIK
binds: [1] | [3] | [4] | [5]

B4: scFv UPK2-S3D10 (phage display clone) (scFv)
scFv: QVQLQQSGAELVRSGASVKLSCTDSGFNIKDYYMNWVKQRPEQGLEWIGWIDPENGVTQYDPKFQGKATVTADTFSNTAYLQLSSLTSEDTAVYYCNANYKYDWFGYWGQGTLVTVSAGGGGSGGGGSGGGGSNIVMTQSPSSLSASLGERVSLTCRASQEISGYLSWLQQKPDGTIKRLIYAASTLDSGVPERFSGSRSGSDYSLTISSLESEDFADYYCLQYASYPWTFGGGTKLEMK
binds: [6] | [7]

B5: ACPP antibody S5D1 (human full antibody) (antibody, V domains shown)
VH: EVQLVQSGAEVKKPGESLKISCKGSGYTFTNYWIGWVRQMPGKGLEWMGRIYPSDSYTNYSPSFQGQVTISADKSISTAYLQWSSLKASDTAMYYCARDLEPTHHYSWGQGTLVTVSS
VL: QSVLTQPASVSGSPGQSVTISCTGTSSDVGGYNYVSWYQQHPGKPPKLMIYEVSKRPSGVPDRFSGSKSGNTASLTISGLQAEDEADYYCSSHTSSNTLIFGGGTKVTVL
binds: [8]

B6: recombinant anti-UPK2 monoclonal antibody S2E2 (murine-human chimeric) (antibody, V domains shown)
VH: QVKLQQSGPELVRPGASVKMSCKASGYTFTTYWMHWVKQRPGQGLEWIGMIDPSNSDTRLNQKFKDKATLNVDTSSNTAYMHLSSLTSEDSAVYYCTLGGTEYWGQGATLTVSS
VL: SIVMTQSPATLSVTPGDRVSLSCRASQSIGDYLHWFQQKSHESPRLLIKYASQSISGIPSRFSGSGSGSDFTLIINTMEPEDVGVYYCQNAHTYPYTFGGGTKLEIK
binds: [1] | [3] | [4] | [5]

B7: recombinant anti-UPK2 monoclonal antibody S3D10 (murine-human chimeric) (antibody, V domains shown)
VH: QVQLQQSGAELVRSGASVKLSCTDSGFNIKDYYMNWVKQRPEQGLEWIGWIDPENGVTQYDPKFQGKATVTADTFSNTAYLQLSSLTSEDTAVYYCNANYKYDWFGYWGQGTLVTVSA
VL: NIVMTQSPSSLSASLGERVSLTCRASQEISGYLSWLQQKPDGTIKRLIYAASTLDSGVPERFSGSRSGSDYSLTISSLESEDFADYYCLQYASYPWTFGGGTKLEMK
binds: [1] | [2] | [3] | [4] | [5]

B8: scFv UPK2-S7F11 (phage display clone) (scFv)
scFv: EVQLKESGAELVRSGASVKLSCTASAFNIKDYYMNWMKQRPEQGLEWIGWIDPENGDTKYAPKFQGKATITADTSSSTAYLQLTSLTSEDSAVFYCNVNYKYDWFAYWGQGTLVTVSAGGGGSGGGGSGGGGSDVVMTQSQKFMSTSVGDRVSVTCKASQNVGTNVAWYQQKPGQSPRALIYSASYRYSGVPDRFTGSGSGTDFTLTISNVQSEDLAEYFCQQYNTYPWTFGGGTKLEIK
binds: [6] | [7]

B9: scFv UPK2-S2E2 (phage display clone) (scFv)
scFv: QVKLQQSGPELVRPGASVKMSCKASGYTFTTYWMHWVKQRPGQGLEWIGMIDPSNSDTRLNQKFKDKATLNVDTSSNTAYMHLSSLTSEDSAVYYCTLGGTEYWGQGATLTVSSGGGGSGGGGSGGGGSSIVMTQSPATLSVTPGDRVSLSCRASQSIGDYLHWFQQKSHESPRLLIKYASQSISGIPSRFSGSGSGSDFTLIINTMEPEDVGVYYCQNAHTYPYTFGGGTKLEIK
binds: [6] | [7]
